Experimental data as given in patent EP0132734A2, “Neopentyl isocyanates and their preparation” (priority 1983, dated 1985).
At least one compound was matched to its structure with a doubt left.

Tested on: Musca domestica ♀♀, Stamm Weymanns (resistent)
Experiment: LT100 test (time to 100 % knock-down on treated filter paper in Petri dishes)
Type: in vivo
Conditions: single substance, concentration 1,0 %; LT100 not reached after 6 hours (360'); solvent acetone; 25 test animals

Row | Structure (SMILES) | bei 360' in % (knock down gegangene Testtiere)
1 | CNC(=O)Oc1ccccc1OC(C)C [(A), Propoxur] | 360' = 60%
2 | C#CCOC(=O)NCC(CF)(CF)CF [Beispiel 1B, N-(2,2-Bisfluormethyl-3-fluorpropyl)-carbamidsäure-0-2-propinylester] | 360' = 35%
